# Screen size: about 220,000 compounds; about 2,400 (1.1%) were called active. This list was built around the results that the source calls inconclusive (neither active nor inactive); the mix of calls is not that of the screen. Calls come from the whole dose curve; as a rule, active = well fitted inhibition curve with a large enough effect; inconclusive = small, poorly fitted or top-dose-only effect, or effect the other way; inactive = no such curve, though single readings can be large or run the other way. Potencies of inconclusive entries are doubtful fits and often do not repeat.
# Experiment: qHTS Multiplex Assay to Identify Dual Action Probes in a Cell Model of Huntington: Aggregate Formation (GFP); note: nearly all actives have a fitted effect of over 60% in size
# Conditions: PC12 HttQ103-GFP aggregates, Acumen cytometry, 40 h; activity change, negative = inhibition: at 46.1 µM (top of the series) unless noted
# Method in brief: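 Steps: seed 1500 PC12 HTTQ103-GFP cells/well; add tebufenozide, 100 nM final; add compound titration; add ATPLite reagent; quantify GFP aggregates by laser scanning cytometry.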
# % is set by controls: 0 for no effect and ±100 for the full control effect; potency is the fitted concentration of half-maximal effect.
Compound,Potency,"activity change, negative = inhibition"
CC(=O)NC(=S)Nc1ccc(S(=O)(=O)N(C)Cc2ccccc2)cc1,"inconclusive: 6.31 µM [activator, partial curve, poor fit]",–
C=CCNC(=O)C1CC2Cn3c(nc4cc5ccccc5cc43)C2N1C (centres undefined),–,inactive: 23.8% [at 9.22 µM]
Cn1cccc1CC(=O)N/N=C\c1c2ccccc2cc2ccccc12,"inconclusive: 7.94 µM [activator, partial curve]",–
CCc1ccccc1N(C)C(=O)CCc1nc(-c2ccc(C)cc2)no1,active: 11.2 µM,–
CCc1ccc(/C=C/C(=O)C2C(=O)c3ccccc3C2=O)cc1,"inconclusive: 14.1 µM [inhibitor, single point]",–
O=C(NNC(=O)c1cc2cc(Br)ccc2oc1=O)c1ccc(O)cc1O,active: 35.5 µM,–
CSC(=NCc1ccco1)NC#N,–,inactive: 17.3% [at 9.22 µM]
O=C(NCc1nc2ccccc2[nH]1)c1ccco1,–,inactive: 2%
Cc1c(Br)c([N+](=O)[O-])nn1CC(=O)Nc1ccc(Cc2ccncc2)cc1,"inconclusive: 11.2 µM [inhibitor, partial curve]",–
CC(=O)c1c(C)[nH]c(C(=O)OCCCCN2C(=O)c3ccccc3C2=O)c1C,active: 2.82 µM,–
Cc1ccc(C)c(N2CCN(C(=O)Nc3ccc4c(c3)N(C)C(=O)CS4)CC2)c1,active: 22.4 µM,–
Oc1c(C(c2ccccn2)N2CCC(Cc3ccccc3)CC2)cc(Cl)c2cccnc12 (centres undefined),"inconclusive: 35.5 µM [inhibitor, single point]",–
Cc1ccc(C(=O)C(OC(=O)c2c(C)cc(=O)oc2C)c2ccccc2)cc1 (centres undefined),"inconclusive: 7.94 µM [activator, partial curve, poor fit]",–
Cn1cnc([N+](=O)[O-])c1Sc1ncccc1N,"inconclusive: 14.1 µM [activator, partial curve]",–
Cc1nn(Cc2ccccc2)c(C)c1NC(=O)CSc1nc(C2CC2)nc2c1cnn2-c1ccccc1,"inconclusive: 5.62 µM [activator, single point]",–
COc1ccccc1NC(=O)CCn1cccc1,"inconclusive: 35.5 µM [activator, single point]",–
CC(NCc1ccc(-c2ccccc2)cc1)C(O)c1ccccc1 (centres undefined),"inconclusive: 35.5 µM [inhibitor, single point]",–
CCOc1cc(NC(=O)c2ccccc2C)c(OCC)cc1NC(=O)C1=Cc2ccccc2OC1,"inconclusive: 5.01 µM [inhibitor, partial curve]",–
CC(=O)Nc1ccc(NC(=O)C(C)OC(=O)/C=C/c2cn(-c3ccccc3)nc2-c2cccnc2)cc1 (centres undefined),"inconclusive: 35.5 µM [inhibitor, single point]",–

# Ordered by number of heavy atoms (falling): some entries from above
Compound,Potency,"activity change, negative = inhibition"
CCOc1cc(NC(=O)c2ccccc2C)c(OCC)cc1NC(=O)C1=Cc2ccccc2OC1,"inconclusive: 5.01 µM [inhibitor, partial curve]",–
C=CCNC(=O)C1CC2Cn3c(nc4cc5ccccc5cc43)C2N1C (centres undefined),–,inactive: 23.8% [at 9.22 µM]
O=C(NCc1nc2ccccc2[nH]1)c1ccco1,–,inactive: 2%
Cn1cnc([N+](=O)[O-])c1Sc1ncccc1N,"inconclusive: 14.1 µM [activator, partial curve]",–

# Reference: PubChem BioAssay AID1688 (National Center for Advancing Translational Sciences (NCATS), 2009)
